The values that follow are results of earlier work, collected in US20250283018A1, “TOILET RIM BLOCKS WITH SCENT CHANGE” (SYMRISE AG, priority 2021, published 2025).

Where two headings read alike, the source gives them in different places.

For `CCCCCCCCCO` [ALKOHOL C 9], the “Bp. [° C.]” value (Table 1, components of MARINA) was 213.3 °C and the “Bp. [° C.]” value (Table 2, components of PEACH) is 213.3 °C.
